Measurements taken from the supplement of paper PMC10331698.
± gives the standard deviation of the averaged measurements. Most values lie at the level of the controls, where differences are scatter.

What was measured:
Experiment in all cases: level (log10 ratio to DMSO vehicle control); higher = higher biomarker level / cell amount than vehicle control
[1] = compound: CCOC(=O)CC(=O)C(F)(F)C(F)(F)F [Ethyl pentafluoropropionyl acetate]; conditions: 2200 nM; in DMSO
Procedure: (§1)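 BioMAP Diversity Plus panel of 12 human primary cell co-culture systems (3C, 4H, LPS, SAg, BT, BF4T, BE3C, CASM3C, HDF3CGF, KF3CT, MyoF, Mphg). Compounds were added 1 h before stimulation and left for 24 h (MyoF 48 h; BT 72 h for soluble read-outs or 6 d for IgG). Biomarkers were read by ELISA, cytotoxicity by SRB, PBMC viability and proliferation by Alamar Blue. Each well value was divided by the mean of 8 DMSO control wells on the same plate and log10 transformed; duplicate blinded samples were tested at 4 concentrations.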

[2] = compound: O=C(O)C(F)(F)OC(F)(F)C(F)(F)OC(F)(F)F [Perfluoro-3,6-dioxaheptanoic acid]; conditions: 2200 nM; in DMSO
Procedure: as §1

[3] = compound: O=C(O)C(F)(F)C(F)(F)C(F)(F)C(F)(F)C(F)(F)C(F)(F)C(F)(F)C(F)(F)C(F)(F)F [Perfluorodecanoic acid]; conditions: in DMSO
Procedure: as §1

[4] = compound: C=CC(=O)OCC(F)(F)C(F)(F)C(F)(F)C(F)(F)C(F)(F)C(F)(F)C(F)(F)C(F)F [1H,1H,9H-Perfluorononyl acrylate]; conditions: 2200 nM; in DMSO
Procedure: as §1

[5] = compound: O=C(O)CCC(F)(C(F)(F)F)C(F)(F)F [4,4-bis(Trifluoromethyl)-4-fluoropropanoic acid]; conditions: 2200 nM; in DMSO
Procedure: as §1

[6] = compound: O=C(O)C(F)(F)OC(F)(F)C(F)(F)OC(F)(F)C(F)(F)OC(F)(F)C(F)(F)C(F)(F)C(F)(F)F [Perfluoro-3,6,9-trioxatridecanoic acid]; conditions: 2200 nM; in DMSO
Procedure: as §1

[7] = compound: O=C(CC(=O)C(F)(F)C(F)(F)C(F)(F)F)c1cccs1 [(Perfluorobutyryl)-2-thenoylmethane]; conditions: 2200 nM; in DMSO
Procedure: as §1

[8] = compound: OCC(F)(F)C(F)(F)C(F)(F)C(F)(F)C(F)(F)C(F)(F)C(F)(F)C(F)(F)CO [1H,1H,10H,10H-Perfluorodecane-1,10-diol]; conditions: 2200 nM; in DMSO
Procedure: as §1

[9] = compound: O=C(O)C(F)(F)C(F)(F)C(F)(F)C(F)(F)C(F)(F)C(F)(F)C(F)(F)F [Ammonium perfluorooctanoate]; conditions: 2200 nM; in DMSO
Procedure: as §1

[10] = compound: O=C(O)C(F)(F)C(F)(F)C(F)(F)C(F)(F)C(F)(F)C(F)(F)C(F)(F)F [Perfluorooctanoic acid]; conditions: 2200 nM; in DMSO
Procedure: as §1

[11] = compound: FC(F)(F)C(F)(F)C(F)(F)C(F)(F)C(F)(F)C(F)(F)C(F)(F)C(F)(F)CCS [2-(Perfluorooctyl)ethanthiol]; conditions: in DMSO
Procedure: as §1

[12] = compound: O=C(O)C(F)(F)C(F)(F)C(F)(F)C(F)(F)C(F)(F)C(F)(F)C(F)(F)C(F)(F)F [Perfluorononanoic acid]; conditions: 2200 nM; in DMSO
Procedure: as §1

[13] = compound: OCC(F)(F)OC(F)(F)C(F)(F)OC(F)(F)C(F)(F)OC(F)(F)CO [1H,1H,11H,11H-Perfluorotetraethylene glycol]; conditions: 2200 nM; in DMSO
Procedure: as §1

[14] = compound: N=C(N)C(F)(F)C(F)(F)C(F)(F)C(F)(F)C(F)(F)C(F)(F)C(F)(F)F [Perfluorooctanamidine]; conditions: in DMSO
Procedure: as §1

Test System | level (log10) [1] | level (log10) [2] | level (log10) ([3]; 2200 nM) | level (log10) ([3]; 6700 nM) | level (log10) ([3]; 20000 nM) | level (log10) [4] | level (log10) [5] | level (log10) [6] | level (log10) [7] | level (log10) [8] | level (log10) [9] | level (log10) [10] | level (log10) ([11]; 740 nM) | level (log10) ([11]; 2200 nM) | level (log10) [12] | level (log10) [13] | level (log10) ([14]; 2200 nM) | level (log10) ([14]; 6700 nM) | level (log10) ([14]; 20000 nM) | level (log10) ([14]; 60000 nM)
HDF3CGF:PAI-I | -0.0005 ± 0.029 | -0.043 ± 0.042 | 0.112 ± 0.073 | 0.15 ± 0.051 | -0.107 ± 0.1 | 0.0095 ± 0.066 | 0.026 ± 0.041 | 0.0015 ± 0.057 | 0.0545 ± 0.052 | 0.0005 ± 0.03 | 0.057 ± 0.054 | 0.0225 ± 0.019 | -0.0385 ± 0.054 | -0.066 ± 0.05 | 0.0195 ± 0.081 | 0.0085 ± 0.033 | -0.035 ± 0.011 | -0.0225 ± 0.013 | 0.02 ± 0.014 | -0.233
BE3C:CD87/uPAR | 0.0075 ± 0.054 | 0.0105 ± 0.023 | 0.0315 ± 0.012 | 0.05 ± 0.016 | -0.554 ± 0.011 | 0.003 ± 0.038 | -0.001 ± 0.025 | 0.0785 ± 0.042 | 0.003 ± 0.0085 | 0.019 ± 0.024 | 0.0105 ± 0.019 | -0.0115 ± 0.093 | 0.0025 ± 0.015 | 0.005 ± 0.017 | 0.0175 ± 0.033 | 0.011 ± 0.027 | 0.0305 ± 0.015 | -0.001 ± 0.014 | -0.0035 ± 0.057 | 0.083
lMphg:CD40 | 0.009 ± 0.014 | -0.0045 ± 0.0035 | 0.005 ± 0.0014 | -0.0025 ± 0.039 | -0.0385 ± 0.05 | -0.0235 ± 0.0021 | -0.004 ± 0.014 | 0.0085 ± 0.0035 | 0.0215 ± 0.012 | 0.0135 ± 0.012 | 0.028 ± 0.052 | -0.004 ± 0.0057 | 0.0265 ± 0.005 | 0.0155 ± 0.044 | -0.002 ± 0.02 | -0.014 ± 0.03 | -0.0125 ± 0.029 | -0.016 ± 0.023 | -0.0145 ± 0.005 | -0.046
BF4T:CD54/ICAM-1 | -0.006 ± 0.017 | -0.006 ± 0.0042 | -0.001 ± 0.0042 | -0.0305 ± 0.0064 | -0.181 ± 0.011 | -0.0195 ± 0.013 | 0.0155 ± 0.013 | -0.017 ± 0.0042 | 0.0005 ± 0.005 | -0.012 ± 0.031 | -0.006 ± 0.0042 | 0.009 ± 0.011 | 0.0095 ± 0.0092 | 0.0045 ± 0.005 | -0.006 ± 0.031 | -0.0035 ± 0.019 | 0.009 ± 0.0099 | -0.001 ± 0.0085 | -0.006 ± 0.017 | 0.039
LPS:CD142/Tissue Factor | -0.0215 ± 0.043 | -0.0145 ± 0.011 | 0 ± 0.0071 | 0.018 ± 0.0085 | -0.011 ± 0.0028 | 0.013 ± 0.0014 | 0.038 ± 0.0014 | 0.006 ± 0.038 | 0.025 ± 0.037 | -0.017 ± 0.025 | 0.008 ± 0.0028 | 0.0465 ± 0.025 | -0.0485 ± 0.14 | 0.0325 ± 0.0035 | -0.0025 ± 0.016 | 0.0245 ± 0.022 | -0.0025 ± 0.046 | -0.008 ± 0.037 | 0.0055 ± 0.033 | -0.071
BF4T:CCL26/Eotaxin-3 | 0.021 ± 0.069 | -0.025 ± 0.023 | -0.028 ± 0.0071 | -0.083 ± 0.038 | -0.509 ± 0.029 | -0.038 ± 0.0057 | -0.0245 ± 0.11 | -0.04 ± 0.035 | -0.0965 ± 0.0021 | -0.0265 ± 0.08 | 0.03 ± 0.023 | 0.0215 ± 0.063 | -0.0345 ± 0.035 | -0.027 ± 0.064 | -0.0395 ± 0.0064 | 0.0005 ± 0.052 | 0.0445 ± 0.053 | 0.0375 ± 0.044 | -0.0585 ± 0.026 | -0.106
HDF3CGF:CXCL11/I-TAC | -0.0325 ± 0.00071 | -0.01 ± 0.023 | -0.0015 ± 0.00071 | 0.046 ± 0.0014 | -0.469 ± 0.28 | -0.011 ± 0.037 | -0.085 ± 0.034 | -0.01 ± 0.016 | 0.009 ± 0.0071 | -0.0115 ± 0.018 | -0.0025 ± 0.012 | 0.001 ± 0.0014 | -0.0125 ± 0.00071 | -0.018 ± 0.037 | 0.0045 ± 0.0035 | -0.0085 ± 0.053 | 0.0095 ± 0.021 | 0.024 ± 0.025 | 0.0285 ± 0.029 | -0.119
CASM3C:LDLR | 0.006 ± 0.018 | -0.046 ± 0.044 | 0.0075 ± 0.025 | -0.0045 ± 0.0078 | 0.0105 ± 0.03 | 0.0205 ± 0.005 | -0.003 ± 0.0014 | -0.021 ± 0.0099 | -0.0115 ± 0.023 | 0.031 ± 0.034 | 0.004 ± 0.0085 | -0.0145 ± 0.016 | -0.001 ± 0.068 | -0.035 ± 0.062 | -0.111 ± 0.094 | 0.002 ± 0.025 | 0.0455 ± 0.047 | 0.012 ± 0.013 | 0.036 ± 0.0085 | 0.108
KF3CT:MMP-9 | -0.0155 ± 0.012 | -0.051 ± 0.021 | -0.049 ± 0.0057 | -0.103 ± 0.037 | -0.308 ± 0.0028 | 0.0205 ± 0.052 | -0.021 ± 0.025 | -0.048 ± 0.0071 | -0.028 ± 0.027 | 0.01 ± 0.051 | -0.0075 ± 0.03 | -0.0235 ± 0.019 | -0.0205 ± 0.035 | -0.0145 ± 0.026 | -0.0375 ± 0.019 | 0.0265 ± 0.012 | -0.002 ± 0.02 | -0.006 ± 0.0028 | -0.0275 ± 0.023 | -0.032
MyoF:TIMP-1 | -0.0005 ± 0.021 | 0.004 ± 0.095 | -0.0225 ± 0.0064 | -0.0345 ± 0.035 | -0.059 ± 0.038 | -0.0185 ± 0.023 | -0.0145 ± 0.067 | -0.019 ± 0.034 | -0.0325 ± 0.0092 | 0.0255 ± 0.064 | 0.002 ± 0.0042 | -0.0045 ± 0.0021 | -0.043 ± 0.04 | -0.0365 ± 0.029 | 0.0025 ± 0.069 | 0.004 ± 0.021 | 0.012 ± 0.0028 | 0.0185 ± 0.011 | 0.041 | 0.123
CASM3C:HLA-DR | -0.0175 ± 0.035 | 0.0015 ± 0.019 | 0.0055 ± 0.021 | 0 | 0.006 ± 0.014 | 0.075 ± 0.02 | -0.0025 ± 0.043 | 0.007 ± 0.0028 | 0.0035 ± 0.025 | 0.004 ± 0.016 | 0.019 ± 0.0042 | 0.0025 ± 0.04 | 0.001 ± 0.014 | -0.032 | -0.0445 ± 0.013 | -0.016 ± 0.013 | 0.0205 ± 0.083 | -0.0335 ± 0.016 | -0.0655 ± 0.011 | -0.022
BF4T:MMP-9 | -0.009 ± 0.065 | -0.0325 ± 0.033 | -0.013 ± 0.013 | -0.025 ± 0.0057 | -0.282 ± 0.023 | 0.0255 ± 0.037 | 0.0435 ± 0.022 | -0.019 ± 0.045 | -0.011 ± 0.03 | 0.002 | 0.0175 ± 0.0064 | -0.0015 ± 0.033 | -0.0125 ± 0.0021 | -0.051 ± 0.018 | -0.0205 ± 0.054 | 0.028 ± 0.0057 | 0.0115 ± 0.019 | -0.006 ± 0.0057 | -0.0115 ± 0.013 | 0.053

A second format for some results above.
Test System,level (log10) [1],level (log10) [2],level (log10) ([3]; 2200 nM),level (log10) ([3]; 6700 nM),level (log10) ([3]; 20000 nM),level (log10) [4],level (log10) [5],level (log10) [6],level (log10) [7],level (log10) [8],level (log10) [9],level (log10) [10],level (log10) ([11]; 740 nM),level (log10) ([11]; 2200 nM),level (log10) [12],level (log10) [13],level (log10) ([14]; 2200 nM),level (log10) ([14]; 6700 nM),level (log10) ([14]; 20000 nM),level (log10) ([14]; 60000 nM)
HDF3CGF:CXCL11/I-TAC,-0.0325 ± 0.00071,-0.01 ± 0.023,-0.0015 ± 0.00071,0.046 ± 0.0014,-0.469 ± 0.28,-0.011 ± 0.037,-0.085 ± 0.034,-0.01 ± 0.016,0.009 ± 0.0071,-0.0115 ± 0.018,-0.0025 ± 0.012,0.001 ± 0.0014,-0.0125 ± 0.00071,-0.018 ± 0.037,0.0045 ± 0.0035,-0.0085 ± 0.053,0.0095 ± 0.021,0.024 ± 0.025,0.0285 ± 0.029,-0.119
MyoF:TIMP-1,-0.0005 ± 0.021,0.004 ± 0.095,-0.0225 ± 0.0064,-0.0345 ± 0.035,-0.059 ± 0.038,-0.0185 ± 0.023,-0.0145 ± 0.067,-0.019 ± 0.034,-0.0325 ± 0.0092,0.0255 ± 0.064,0.002 ± 0.0042,-0.0045 ± 0.0021,-0.043 ± 0.04,-0.0365 ± 0.029,0.0025 ± 0.069,0.004 ± 0.021,0.012 ± 0.0028,0.0185 ± 0.011,0.041,0.123
